The list shows only some results of the screen, not a fair sample: it gathers tests that were run many times, whatever their T/C, doses with no T/C, and many T/C values between a quarter and a half above the control. Other doses and runs of a compound stand elsewhere. T/C is the treated group as % of the vehicle group. Some doses have a count of surviving animals in place of a T/C: the source holds a T/C of zero for them, seemingly a mark for toxic or unscored doses. Some doses without a T/C left all or most animals alive at the check, yet need not have been tolerated: survival well below the control is almost never listed, so the zero probably covers shortened survival too. Survivors were counted at the toxicity check, usually on the fifth day, unless a day is given; later deaths do not show. Schedule codes are those of the source, read here as Q, the interval in days (D) or hours (H), X, the number of doses. Signs of the kind (2×) say how often a value occurs here. Some schedules carry Z or #; the key to these is not given. Some structures stand for samples that the source files as different forms (salt, stereo form or complex); doses refer to the form tested. Where survival is the endpoint, the PubChem record calls one and a half times the control and up active, and a quarter to a half above the control has no call in these data; cut-offs in other NCI protocols can differ.
Test system: L1210 leukemia ip in BDF1 mice, survival T/C
Test: NCI In Vivo Anticancer Drug Screen. Data for tumor model L1210 Leukemia (intraperitoneal) in B6D2F1 (BDF1) mice
Details: T/C endpoint: mean survival time, higher T/C = longer survival
[1] = dose: 200.0 mg/kg/injection, schedule: Q04DX003 (ip), vehicle: saline with Tween-80
[2] = dose: 400.0 mg/kg/injection, schedule: Q04DX003 (ip), vehicle: saline with Tween-80
[3] = dose: 200.0 mg/kg/injection, schedule: Q04DX002 (ip), vehicle: saline with Tween-80
[4] = dose: 100.0 mg/kg/injection, schedule: Q04DX003 (ip), vehicle: saline with Tween-80

SMILES: CC(CCC(C)OS(C)(=O)=O)OS(C)(=O)=O (configuration not stated)
- survivor count (dose: 4.0 mg/kg/injection, schedule: Q01DX010 (ip), vehicle: saline): 6 of 6
- survivor count (dose: 50.0 mg/kg/injection, schedule: Q01DX009 (ip), vehicle: Klucel (hydroxypropylcellulose) (HPC)): 3 of 3
- survivor count (dose: 50.0 mg/kg/injection, schedule: Q04DX002 (ip), vehicle: Klucel (hydroxypropylcellulose) (HPC)): 3 of 3
- survivor count (dose: 100.0 mg/kg/injection, schedule: Q01DX009 (ip), vehicle: Klucel (hydroxypropylcellulose) (HPC)): 3 of 3
- survivor count (dose: 100.0 mg/kg/injection, schedule: Q04DX002 (ip), vehicle: Klucel (hydroxypropylcellulose) (HPC)): 3 of 3
- survivor count (dose: 100.0 mg/kg/injection, schedule: Q04DX003 (ip), vehicle: Klucel (hydroxypropylcellulose) (HPC)): 6 of 6 (2×)
- survivor count (dose: 200.0 mg/kg/injection, schedule: Q01DX009 (ip), vehicle: Klucel (hydroxypropylcellulose) (HPC)): 3 of 3
- survivor count (dose: 200.0 mg/kg/injection, schedule: Q04DX003 (ip), vehicle: Klucel (hydroxypropylcellulose) (HPC)): 6 of 6 (2×)
- survivor count (dose: 400.0 mg/kg/injection, schedule: Q04DX003 (ip), vehicle: Klucel (hydroxypropylcellulose) (HPC)): 6 of 6 (2×)

SMILES: CC1(C)CS(=O)(=O)CC1=O
- survivor count (dose: 100.0 mg/kg/injection, schedule: Q04DX003 (ip), vehicle: saline): 1 of 6
- survivor count (dose: 200.0 mg/kg/injection, schedule: Q04DX003 (ip), vehicle: saline): 0 of 6
- survivor count (dose: 400.0 mg/kg/injection, schedule: Q04DX003 (ip), vehicle: saline): 0 of 6

SMILES: CCNC(C)CC(C)C (configuration not stated)
- survivor count [1]: 0 of 6
- survivor count [2]: 0 of 6

SMILES: CCOC(=O)C1=NC=NC1=[N+]=[N-]
- survivor count (dose: 40.0 mg/kg/injection, schedule: Q01DX001 (ip), vehicle: saline): 0 of 6
- survivor count (dose: 80.0 mg/kg/injection, schedule: Q01DX001 (ip), vehicle: saline): 0 of 6

SMILES: COc1ccc(OP(=O)(N2CC2)N2CC2)cc1
- T/C (dose: 150.0 mg/kg/injection, schedule: Q01DX Z (ip), vehicle: carboxymethylcellulose (CMC)): 141 % of control

SMILES: CCN(CC)c1ccc(/C=N/N=C(N)N)cc1
- survivor count (dose: 30.0 mg/kg/injection, schedule: Q01DX Z (ip), vehicle: other): 0 of 6
- survivor count (dose: 62.5 mg/kg/injection, schedule: Q01DX Z (ip), vehicle: saline): 0 of 6
- survivor count (dose: 125.0 mg/kg/injection, schedule: Q01DX Z (ip), vehicle: saline): 0 of 6
- survivor count (dose: 250.0 mg/kg/injection, schedule: Q01DX Z (ip), vehicle: saline): 0 of 6
- survivor count (dose: 500.0 mg/kg/injection, schedule: Q01DX Z (ip), vehicle: saline): 0 of 6

SMILES: c1ccc(-c2oc(-c3ccccc3)c3c(-c4ccccc4)cccc23)cc1
- survivor count [3]: 3 of 3

SMILES: COc1cc2cc[n+](C)c(Cc3ccccc3)c2cc1OC
- survivor count (dose: 100.0 mg/kg/injection, schedule: Q01DX009 (ip), vehicle: saline with Tween-80): 0 of 6
- survivor count [4]: 0 of 6
- survivor count [1]: 0 of 6
- survivor count [2]: 0 of 6

SMILES: COc1c(O)cc2c(c1OC)-c1ccc(OC)c(=O)cc1C(NC=O)CC2 (configuration not stated)
- survivor count [2]: 1 of 6

SMILES: CC[N+](CC)(CC)CC(=O)NCc1ccco1
- survivor count (dose: 400.0 mg/kg/injection, schedule: Q04DX002 (ip), vehicle: carboxymethylcellulose (CMC)): 3 of 6

SMILES: COc1ccc(Cc2ccccc2)c(O)c1
- survivor count (dose: 400.0 mg/kg/injection, schedule: Q01DX009 (ip), vehicle: other): 3 of 6

SMILES: Nc1nc(N)c2c(n1)CCCC2
- survivor count [4]: 6 of 6
- survivor count [1]: 2 of 6
- survivor count [2]: 5 of 6

SMILES: O=C(Nc1ccc(C2=NCCN2)cc1)Nc1cccc(C(=O)Nc2ccc(C3=NCCN3)cc2)c1
- T/C (dose: 15.0 mg/kg/injection, schedule: Q01DX Z (ip), vehicle: carboxymethylcellulose (CMC)): 134 % of control
- T/C (dose: 60.0 mg/kg/injection, schedule: Q01DX Z (ip), vehicle: carboxymethylcellulose (CMC)): 131 % of control
- T/C (dose: 250.0 mg/kg/injection, schedule: Q01DX Z (ip), vehicle: carboxymethylcellulose (CMC)): 148 % of control
- T/C (dose: 480.0 mg/kg/injection, schedule: Q01DX Z (ip), vehicle: saline): 136 % of control
- survivor count (dose: 500.0 mg/kg/injection, schedule: Q01DX Z (ip), vehicle: carboxymethylcellulose (CMC)): 0 of 6

SMILES: NC(N)=N/C(N)=N/Nc1ccc([N+](=O)[O-])cc1[N+](=O)[O-]
- survivor count (dose: 50.0 mg/kg/injection, schedule: Q04DX002 (ip), vehicle: saline with Tween-80): 1 of 6
- survivor count [3]: 1 of 3
- survivor count (dose: 400.0 mg/kg/injection, schedule: Q04DX002 (ip), vehicle: saline with Tween-80): 0 of 3

SMILES: OCCCCc1nccc2c1[nH]c1ccccc12
- survivor count (dose: 100.0 mg/kg/injection, schedule: Q01DX009 (ip), vehicle: saline): 3 of 6

From PubChem BioAssay AID248 (DTP/NCI, 2004)
